These results are taken from patent US4590193A, “3-(2-(4-phenylpiperazinylethyl)anilino)-isobenzofuranones, their method of preparation and their use as antihypertensive and antiallergic drugs” (Societe Cortial, S.A., priority 1982, dated 1986).

As usually defined, the IC50 is the concentration needed to halve the response being measured. A high value points to weaker potency in that assay.

In the assay the test system is contractions induced by serotonin on an isolated guinea pig ileum. As to the kind of experiment: In vitro antiserotonin activity: inhibition of serotonin-induced contractions of isolated guinea pig ileum. The settings on record: Cavia porcellus; serotonin 5.10^-7 g/ml; time of contact 3 mm. In kind it is cell-based. The text has this: The products of this invention are competitive antagonists of histamine.

On to `CN1CCC(=C2c3ccccc3C=Cc3ccccc32)CC1` [Cyproheptadine, reference compound], for which the midpoint of inhibition, the IC50, lay at 141 nM. That is a sub-micromolar value.
